The source of these data is PMC10266348.

Amino acid sequences for entries named in this document (tags omitted). Residues count along the entry.
UniProt P10923, residues 17-294: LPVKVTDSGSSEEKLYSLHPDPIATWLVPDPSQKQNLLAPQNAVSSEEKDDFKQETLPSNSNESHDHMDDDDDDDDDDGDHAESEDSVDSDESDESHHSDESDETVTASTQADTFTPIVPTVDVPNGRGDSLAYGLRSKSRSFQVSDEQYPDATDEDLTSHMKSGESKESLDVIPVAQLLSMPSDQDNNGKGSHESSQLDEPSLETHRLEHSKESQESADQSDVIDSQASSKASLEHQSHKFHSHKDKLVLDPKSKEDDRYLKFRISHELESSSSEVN
UniProt Q9R0P9: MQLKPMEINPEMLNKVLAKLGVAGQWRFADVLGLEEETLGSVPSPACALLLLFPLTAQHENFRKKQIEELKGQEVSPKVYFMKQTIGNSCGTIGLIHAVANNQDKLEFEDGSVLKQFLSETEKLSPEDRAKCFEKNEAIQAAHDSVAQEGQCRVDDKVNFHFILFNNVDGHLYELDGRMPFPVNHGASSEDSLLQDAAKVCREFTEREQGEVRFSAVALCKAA

In the test the target is Osteopontin (mouse (endogenous in bone marrow-derived macrophages)) (UniProt P10923). Description: co-IP; endogenous proteins in BMMΦ lysate (Pierce IP Lysis Buffer); pre-cleared with TrueBlot Anti-Rabbit IP beads, primary antibody overnight at 4°C, beads washed with lysis buffer, SDS-PAGE and blot; GA-stimulated macrophages not included.

No constants are given. Whether binding was seen depends on the method and setting. In cells and extracts the contact can be indirect. Some binding calls cover weakened binding; strength is not graded here.

Regarding “ubiquitin carboxyl-terminal hydrolase isozyme 1 (from UniProt Q9R0P9 1-223) (enzyme)”, the binding entry was “binds”.
